Experiment [1] concerns the target specificity protein 1 (human (endogenous in SW620)) (UniProt P08047). The experiment in a line: co-IP; SW620 cells under normoxic or hypoxic conditions; lysis buffer 20 mmol/L Tris-HCl pH 7.4, 150 mmol/L NaCl, 1% NP-40, 1 mmol/L EDTA, 5% glycerol; specific antibodies overnight, Protein A/G magnetic beads, Western blot. For orientation: Immunoblotting shows a protein as a band on a membrane.

Amino acid sequences for entries named in this document (tags omitted).
UniProt P08047: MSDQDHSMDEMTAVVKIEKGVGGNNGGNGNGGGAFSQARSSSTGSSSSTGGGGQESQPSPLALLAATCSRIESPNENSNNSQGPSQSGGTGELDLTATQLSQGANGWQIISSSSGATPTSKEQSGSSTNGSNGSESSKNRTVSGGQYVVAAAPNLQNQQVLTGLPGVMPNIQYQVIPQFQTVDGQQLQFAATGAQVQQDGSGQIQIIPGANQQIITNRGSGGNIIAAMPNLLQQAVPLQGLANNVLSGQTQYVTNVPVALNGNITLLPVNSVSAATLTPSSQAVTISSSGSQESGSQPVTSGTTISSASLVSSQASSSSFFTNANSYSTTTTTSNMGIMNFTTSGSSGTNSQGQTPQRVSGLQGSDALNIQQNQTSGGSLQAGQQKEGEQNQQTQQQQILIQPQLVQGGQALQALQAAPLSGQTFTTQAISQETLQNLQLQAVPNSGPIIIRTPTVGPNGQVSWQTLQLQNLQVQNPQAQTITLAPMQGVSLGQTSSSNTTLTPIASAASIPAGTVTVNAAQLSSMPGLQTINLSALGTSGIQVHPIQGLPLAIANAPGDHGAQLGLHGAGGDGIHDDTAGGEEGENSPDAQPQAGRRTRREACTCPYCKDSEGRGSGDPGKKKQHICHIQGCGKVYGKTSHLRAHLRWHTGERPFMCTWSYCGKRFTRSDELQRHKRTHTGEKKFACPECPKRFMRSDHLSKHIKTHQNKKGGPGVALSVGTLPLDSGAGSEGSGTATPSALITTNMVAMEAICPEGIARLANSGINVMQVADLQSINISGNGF
UniProt P40763: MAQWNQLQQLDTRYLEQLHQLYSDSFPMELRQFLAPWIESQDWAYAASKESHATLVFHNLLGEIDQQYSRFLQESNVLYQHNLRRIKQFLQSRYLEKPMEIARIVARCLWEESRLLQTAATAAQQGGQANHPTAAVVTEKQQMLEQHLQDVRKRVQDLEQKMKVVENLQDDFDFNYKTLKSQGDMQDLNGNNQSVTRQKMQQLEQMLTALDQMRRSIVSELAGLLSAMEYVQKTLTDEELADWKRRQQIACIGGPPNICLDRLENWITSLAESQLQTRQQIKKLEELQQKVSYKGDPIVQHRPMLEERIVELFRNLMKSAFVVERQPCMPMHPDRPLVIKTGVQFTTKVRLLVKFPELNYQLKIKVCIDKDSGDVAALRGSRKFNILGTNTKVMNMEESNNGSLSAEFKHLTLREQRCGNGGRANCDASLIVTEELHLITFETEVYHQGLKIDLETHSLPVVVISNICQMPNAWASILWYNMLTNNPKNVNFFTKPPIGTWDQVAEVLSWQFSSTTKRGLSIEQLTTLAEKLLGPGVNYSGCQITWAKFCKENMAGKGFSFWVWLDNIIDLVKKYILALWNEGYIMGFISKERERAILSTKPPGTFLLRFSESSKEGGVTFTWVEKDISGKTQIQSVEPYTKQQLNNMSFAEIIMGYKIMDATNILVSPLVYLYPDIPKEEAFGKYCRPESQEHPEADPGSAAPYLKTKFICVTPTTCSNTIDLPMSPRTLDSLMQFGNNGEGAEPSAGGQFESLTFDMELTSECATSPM
UniProt Q9Y297: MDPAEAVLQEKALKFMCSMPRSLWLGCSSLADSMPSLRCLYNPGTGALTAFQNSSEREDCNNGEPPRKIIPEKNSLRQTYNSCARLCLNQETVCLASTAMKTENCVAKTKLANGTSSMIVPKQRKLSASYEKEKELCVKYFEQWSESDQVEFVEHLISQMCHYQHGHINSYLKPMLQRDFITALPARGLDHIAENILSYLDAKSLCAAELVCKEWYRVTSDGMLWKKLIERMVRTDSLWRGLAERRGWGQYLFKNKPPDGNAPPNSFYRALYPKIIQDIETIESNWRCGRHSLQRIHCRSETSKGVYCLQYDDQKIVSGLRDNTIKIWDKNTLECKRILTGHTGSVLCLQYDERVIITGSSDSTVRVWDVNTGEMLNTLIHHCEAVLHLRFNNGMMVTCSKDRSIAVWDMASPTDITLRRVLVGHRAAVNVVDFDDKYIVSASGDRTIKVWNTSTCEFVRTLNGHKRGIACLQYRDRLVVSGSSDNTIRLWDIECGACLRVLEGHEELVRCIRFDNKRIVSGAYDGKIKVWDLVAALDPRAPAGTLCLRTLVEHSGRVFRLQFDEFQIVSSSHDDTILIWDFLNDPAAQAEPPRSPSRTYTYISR
UniProt Q16665: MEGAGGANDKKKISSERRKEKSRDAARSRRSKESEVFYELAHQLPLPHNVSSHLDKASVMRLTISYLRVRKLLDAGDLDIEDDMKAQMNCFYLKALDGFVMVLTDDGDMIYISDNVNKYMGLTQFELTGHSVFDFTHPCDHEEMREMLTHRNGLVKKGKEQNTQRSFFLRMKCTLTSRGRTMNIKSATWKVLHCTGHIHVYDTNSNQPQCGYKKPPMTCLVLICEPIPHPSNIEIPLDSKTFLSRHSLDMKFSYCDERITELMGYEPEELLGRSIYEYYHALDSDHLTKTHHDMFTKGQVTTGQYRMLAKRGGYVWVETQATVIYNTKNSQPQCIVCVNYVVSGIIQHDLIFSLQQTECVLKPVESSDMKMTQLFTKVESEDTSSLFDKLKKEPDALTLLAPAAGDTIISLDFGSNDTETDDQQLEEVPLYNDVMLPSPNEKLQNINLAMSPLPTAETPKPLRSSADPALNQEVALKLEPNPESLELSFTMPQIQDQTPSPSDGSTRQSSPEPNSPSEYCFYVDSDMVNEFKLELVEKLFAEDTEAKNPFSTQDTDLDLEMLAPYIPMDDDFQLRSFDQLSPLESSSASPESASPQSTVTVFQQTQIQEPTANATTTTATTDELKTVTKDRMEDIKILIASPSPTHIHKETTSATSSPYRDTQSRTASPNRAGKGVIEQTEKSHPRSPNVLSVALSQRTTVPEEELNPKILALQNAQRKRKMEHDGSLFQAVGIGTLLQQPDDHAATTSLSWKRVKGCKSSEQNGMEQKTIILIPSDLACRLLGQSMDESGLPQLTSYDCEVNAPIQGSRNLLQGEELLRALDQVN

Experiment [2] has as its target STAT3 (UniProt P40763). The experiment in a line: co-IP; immunoprecipitation (IP) assay of STAT3 and ANGPTL4; cells and precipitating antibody not named for this experiment.

No constants are given. Whether binding was seen depends on the method and setting. Binding seen in cells or lysates may run through a third protein. Some binding calls cover weakened binding; strength is not graded here.

As for “beta-transducin repeat containing E3 ubiquitin protein (from UniProt Q9Y297 1-605)”, the binding entry in experiment [1] is on record as “binds”.

Regarding “hypoxia-inducible factor 1A (from UniProt Q16665 1-826)”, in experiment [1], the binding result was “binds”.

B1: angiopoietin like 4 (protein, UniProt Q9BY76 26-406)
chain: GPVQSKSPRFASWDEMNVLAHGLLQLGQGLREHAERTRSQLSALERRLSACGSACQGTEGSTDLPLAPESRVDPEVLHSLQTQLKAQNSRIQQLFHKVAQQQRHLEKQHLRIQHLQSQFGLLDHKHLDHEVAKPARRKRLPEMAQPVDPAHNVSRLHRLPRDCQELFQVGERQSGLFEIQPQGSPPFLVNCKMTSDGGWTVIQRRHDGSVDFNRPWEAYKAGFGDPHGEFWLGLEKVHSITGDRNSRLAVQLRDWDGNAELLQFSVHLGGEDTAYSLQLTAPVAGQLGATTVPPSGLSVPFSTWDQDHDLRRDKNCAKSLSGGWWFGTCSHSNLNGQYFRSIPQQRQKLKKGIFWKTWRGRYYPLQATTMLIQPMAAEAAS
On to B1, for which the binding entry in experiment [2] is “binds”.

The record behind these values is article PMC12288965.
